# According to publication PMC6416313:
# Protein sequences, listed by entry. Tags and fused reporters are not part of them. Residues count along the entry.
# UniProt P19490, residues 19-907: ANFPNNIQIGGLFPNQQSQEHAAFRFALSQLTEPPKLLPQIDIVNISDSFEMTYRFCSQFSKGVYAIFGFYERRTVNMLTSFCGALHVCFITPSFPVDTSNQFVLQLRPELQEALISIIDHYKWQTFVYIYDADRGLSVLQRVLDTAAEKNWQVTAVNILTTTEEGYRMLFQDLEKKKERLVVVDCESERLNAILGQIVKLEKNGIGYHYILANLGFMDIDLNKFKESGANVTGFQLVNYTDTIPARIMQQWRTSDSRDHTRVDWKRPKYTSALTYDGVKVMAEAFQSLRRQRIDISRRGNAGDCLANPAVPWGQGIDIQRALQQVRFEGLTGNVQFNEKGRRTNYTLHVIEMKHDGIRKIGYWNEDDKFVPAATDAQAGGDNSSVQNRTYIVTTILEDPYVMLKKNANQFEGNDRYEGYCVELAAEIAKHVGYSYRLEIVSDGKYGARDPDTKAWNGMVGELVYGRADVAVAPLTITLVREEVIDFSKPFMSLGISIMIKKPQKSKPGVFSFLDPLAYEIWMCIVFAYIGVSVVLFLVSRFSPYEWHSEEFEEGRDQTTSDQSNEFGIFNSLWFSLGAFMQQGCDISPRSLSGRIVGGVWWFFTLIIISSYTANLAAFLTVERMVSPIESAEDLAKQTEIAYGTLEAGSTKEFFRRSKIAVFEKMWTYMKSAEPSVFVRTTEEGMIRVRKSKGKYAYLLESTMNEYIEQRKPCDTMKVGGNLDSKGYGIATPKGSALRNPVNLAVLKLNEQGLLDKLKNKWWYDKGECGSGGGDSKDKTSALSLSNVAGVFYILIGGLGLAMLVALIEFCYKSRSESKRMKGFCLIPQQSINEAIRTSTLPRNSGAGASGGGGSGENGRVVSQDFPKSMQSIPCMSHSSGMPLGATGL
# UniProt P19491, residues 22-883: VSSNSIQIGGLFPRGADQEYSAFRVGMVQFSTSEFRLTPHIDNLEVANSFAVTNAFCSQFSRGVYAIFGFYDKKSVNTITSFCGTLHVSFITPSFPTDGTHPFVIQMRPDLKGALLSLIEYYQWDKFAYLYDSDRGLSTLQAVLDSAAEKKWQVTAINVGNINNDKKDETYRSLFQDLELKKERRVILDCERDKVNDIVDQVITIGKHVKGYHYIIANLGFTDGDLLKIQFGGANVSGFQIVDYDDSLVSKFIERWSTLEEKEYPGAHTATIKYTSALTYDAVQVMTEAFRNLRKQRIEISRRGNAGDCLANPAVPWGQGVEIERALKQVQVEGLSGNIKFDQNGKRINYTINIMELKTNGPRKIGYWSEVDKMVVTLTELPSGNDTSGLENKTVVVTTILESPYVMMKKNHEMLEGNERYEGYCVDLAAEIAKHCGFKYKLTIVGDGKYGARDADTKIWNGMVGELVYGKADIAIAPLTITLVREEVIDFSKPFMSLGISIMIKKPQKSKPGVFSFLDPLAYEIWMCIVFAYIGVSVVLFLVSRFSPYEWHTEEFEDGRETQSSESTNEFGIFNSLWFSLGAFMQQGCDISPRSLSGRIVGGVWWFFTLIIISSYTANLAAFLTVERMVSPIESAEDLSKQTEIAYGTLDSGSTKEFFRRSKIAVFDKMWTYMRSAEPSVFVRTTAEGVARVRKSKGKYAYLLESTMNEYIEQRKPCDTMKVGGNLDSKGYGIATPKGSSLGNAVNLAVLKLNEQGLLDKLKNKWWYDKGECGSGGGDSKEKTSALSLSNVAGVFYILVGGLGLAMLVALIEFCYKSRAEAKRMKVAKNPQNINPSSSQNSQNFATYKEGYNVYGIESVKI
# Results are given in words; binding and its absence hold for the method and conditions named. Binding seen in cells or lysates may run through a third protein. Some entries that bind do so weakly or less than the wild type. Where a sequence is shown, tags or fusion partners need not be part of it.
# Target: T1, myc-Phldb2 (UniProt Q8K1N2)
# T1 sequence: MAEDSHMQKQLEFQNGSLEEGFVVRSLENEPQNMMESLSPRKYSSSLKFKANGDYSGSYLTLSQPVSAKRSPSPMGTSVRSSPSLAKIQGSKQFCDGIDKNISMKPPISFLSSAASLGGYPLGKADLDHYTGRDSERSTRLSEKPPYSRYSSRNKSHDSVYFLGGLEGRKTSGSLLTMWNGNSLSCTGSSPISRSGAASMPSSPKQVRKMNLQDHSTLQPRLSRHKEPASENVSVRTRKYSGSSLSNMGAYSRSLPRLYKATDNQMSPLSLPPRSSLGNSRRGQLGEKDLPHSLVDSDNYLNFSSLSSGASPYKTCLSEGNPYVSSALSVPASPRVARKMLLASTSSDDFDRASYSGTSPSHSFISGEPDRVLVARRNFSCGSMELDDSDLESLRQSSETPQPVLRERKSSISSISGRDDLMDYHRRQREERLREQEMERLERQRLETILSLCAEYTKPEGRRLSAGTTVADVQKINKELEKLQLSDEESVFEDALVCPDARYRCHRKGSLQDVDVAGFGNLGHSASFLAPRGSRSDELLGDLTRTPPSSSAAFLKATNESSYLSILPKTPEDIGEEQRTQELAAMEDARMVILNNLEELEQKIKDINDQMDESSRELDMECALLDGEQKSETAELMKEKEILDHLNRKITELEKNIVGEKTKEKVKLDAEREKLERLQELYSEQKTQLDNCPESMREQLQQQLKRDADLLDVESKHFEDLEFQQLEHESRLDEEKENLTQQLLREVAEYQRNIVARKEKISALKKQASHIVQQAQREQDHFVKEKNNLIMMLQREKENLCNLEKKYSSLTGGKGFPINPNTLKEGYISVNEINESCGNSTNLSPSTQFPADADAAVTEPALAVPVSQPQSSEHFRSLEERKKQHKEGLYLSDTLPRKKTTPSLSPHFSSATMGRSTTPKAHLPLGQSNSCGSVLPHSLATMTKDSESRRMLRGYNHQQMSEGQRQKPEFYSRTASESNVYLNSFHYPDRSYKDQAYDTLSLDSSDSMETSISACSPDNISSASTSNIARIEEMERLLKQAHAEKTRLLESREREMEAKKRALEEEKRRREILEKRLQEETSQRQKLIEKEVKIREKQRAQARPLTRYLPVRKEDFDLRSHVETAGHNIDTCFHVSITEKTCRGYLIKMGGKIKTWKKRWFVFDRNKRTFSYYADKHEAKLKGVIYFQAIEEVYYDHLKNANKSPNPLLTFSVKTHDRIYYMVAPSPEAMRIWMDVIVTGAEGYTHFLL
# Assay: co-IP; myc-Phldb2 (or myc-mock) and GFP-GluA1 or GFP-GluA2 co-transfected in COS-7 cells; lysates immunoprecipitated with anti-myc antibody
row,Substance,binding
1,GFP-GluA1 (from UniProt P19490 19-907) (receptor),binds
2,GFP-GluA2 (from UniProt P19491 22-883) (receptor),binds
